# No constants are given. Whether binding was seen depends on the method and setting. Binding seen in cells or lysates may run through a third protein. A yes stands for co-enrichment or nearness to the bait. Other partners may have been found. Where a sequence is shown, tags or fusion partners need not be part of it.
# T1: full length TRIM14 ORF tagged at the C-terminus with 3xFLAG (human) (UniProt Q14142)
# T1 sequence: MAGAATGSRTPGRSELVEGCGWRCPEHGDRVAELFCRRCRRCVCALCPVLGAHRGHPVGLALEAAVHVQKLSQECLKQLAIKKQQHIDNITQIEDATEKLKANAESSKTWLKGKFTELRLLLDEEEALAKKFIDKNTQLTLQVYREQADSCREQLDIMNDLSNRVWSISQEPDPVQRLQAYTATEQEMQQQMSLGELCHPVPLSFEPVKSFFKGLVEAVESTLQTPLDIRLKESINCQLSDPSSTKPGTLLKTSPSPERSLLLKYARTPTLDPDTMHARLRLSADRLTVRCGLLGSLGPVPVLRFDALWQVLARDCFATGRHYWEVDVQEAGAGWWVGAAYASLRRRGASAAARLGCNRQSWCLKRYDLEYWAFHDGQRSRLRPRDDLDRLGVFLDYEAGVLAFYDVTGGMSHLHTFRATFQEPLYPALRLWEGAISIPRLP
# Molecular target: T1, full length TRIM14 ORF tagged at the C-terminus with 3xFLAG (human)
# Assay: affinity purification with mass spectrometry; anti-FLAG affinity gel IP of C-terminally 3xFLAG-tagged TRIM14 from HEK293T lysate 48 h after transfection, overnight at 4 °C; eluted with 0.15% TFA, trypsin, LC-MS/MS; proteins also found with empty FLAG vector excluded; hits seen in at least 2 of 3 biological experiments
row,binding,Binder
1,binds,"Serine/threonine-protein phosphatase 6 regulatory subunit 3 (protein, UniProt Q5H9R7 1-873) MFWKFDLHSSSHIDTLLEREDVTLKELMDEEDVLQECKAQNRKLIEFLLKAECLEDLVSFIIEEPPQDMDEKIRYKYPNISCELLTSDVSQMNDRLGEDESLLMKLYSFLLNDSPLNPLLASFFSKVLSILISRKPEQIVDFLKKKHDFVDLIIKHIGTSAIMDLLLRLLTCIEPPQPRQDVLNWLNEEKIIQRLVEIVHPSQEEDRHSNASQSLCEIVRLSRDQMLQIQNSTEPDPLLATLEKQEIIEQLLSNIFHKEKNESAIVSAIQILLTLLETRRPTFEGHIEICPPGMSHSACSVNKSVLEAIRGRLGSFHELLLEPPKKSVMKTTWGVLDPPVGNTRLNVIRLISSLLQTNTSSINGDLMELNSIGVILNMFFKYTWNNFLHTQVEICIALILASPFENTENATITDQDSTGDNLLLKHLFQKCQLIERILEAWEMNEKKQAEGGRRHGYMGHLTRIANCIVHSTDKGPNSALVQQLIKDLPDEVRERWETFCTSSLGETNKRNTVDLVTTCHIHSSSDDEIDFKETGFSQDSSLQQAFSDYQMQQMTSNFIDQFGFNDEKFADQDDIGNVSFDRVSDINFTLNTNESGNIALFEACCKERIQQFDDGGSDEEDIWEEKHIAFTPESQRRSSSGSTDSEESTDSEEEDGAKQDLFEPSSANTEDKMEVDLSEPPNWSANFDVPMETTHGAPLDSVGSDVWSTEEPMPTKETGWASFSEFTSSLSTKDSLRSNSPVEMETSTEPMDPLTPSAAALAVQPEAAGSVAMEASSDGEEDAESTDKVTETVMNGGMKETLSLTVDAKTETAVFKSEEGKLSTSQDAACKDAEECPETAEAKCAAPRPPSSSPEQRTGQPSAPGDTSVNGPV"
2,binds,"Pyridoxal-dependent decarboxylase domain-containing protein 1 (protein, UniProt Q6P996 1-788) MDASLEKIADPTLAEMGKNLKEAVKMLEDSQRRTEEENGKKLISGDIPGPLQGSGQDMVSILQLVQNLMHGDEDEEPQSPRIQNIGEQGHMALLGHSLGAYISTLDKEKLRKLTTRILSDTTLWLCRIFRYENGCAYFHEEEREGLAKICRLAIHSRYEDFVVDGFNVLYNKKPVIYLSAAARPGLGQYLCNQLGLPFPCLCRVPCNTVFGSQHQMDVAFLEKLIKDDIERGRLPLLLVANAGTAAVGHTDKIGRLKELCEQYGIWLHVEGVNLATLALGYVSSSVLAAAKCDSMTMTPGPWLGLPAVPAVTLYKHDDPALTLVAGLTSNKPTDKLRALPLWLSLQYLGLDGFVERIKHACQLSQRLQESLKKVNYIKILVEDELSSPVVVFRFFQELPGSDPVFKAVPVPNMTPSGVGRERHSCDALNRWLGEQLKQLVPASGLTVMDLEAEGTCLRFSPLMTAAVLGTRGEDVDQLVACIESKLPVLCCTLQLREEFKQEVEATAGLLYVDDPNWSGIGVVRYEHANDDKSSLKSDPEGENIHAGLLKKLNELESDLTFKIGPEYKSMKSCLYVGMASDNVDAAELVETIAATAREIEENSRLLENMTEVVRKGIQEAQVELQKASEERLLEEGVLRQIPVVGSVLNWFSPVQALQKGRTFNLTAGSLESTEPIYVYKAQGAGVTLPPTPSGSRTKQRLPGQKPFKRSLRGSDALSETSSVSHIEDLEKVERLSSGPEQITLEASSTEGHPGAPSPQHTDQTEAFQKGVPHPEDDHSQVEGPESLR"
3,binds,"Immunoglobulin-binding protein 1 (protein, UniProt P78318 1-339) MAAEDELQLPRLPELFETGRQLLDEVEVATEPAGSRIVQEKVFKGLDLLEKAAEMLSQLDLFSRNEDLEEIASTDLKYLLVPAFQGALTMKQVNPSKRLDHLQRAREHFINYLTQCHCYHVAEFELPKTMNNSAENHTANSSMAYPSLVAMASQRQAKIQRYKQKKELEHRLSAMKSAVESGQADDERVREYYLLHLQRWIDISLEEIESIDQEIKILRERDSSREASTSNSSRQERPPVKPFILTRNMAQAKVFGAGYPSLPTMTVSDWYEQHRKYGALPDQGIAKAAPEEFRKAAQQQEEQEEKEEEDDEQTLHRAREWDDWKDTHPRGYGNRQNMG"
4,binds,"Reticulocalbin-1 (protein, UniProt Q15293 30-331) KPTVRKERVVRPDSELGERPPEDNQSFQYDHEAFLGKEDSKTFDQLTPDESKERLGKIVDRIDNDGDGFVTTEELKTWIKRVQKRYIFDNVAKVWKDYDRDKDDKISWEEYKQATYGYYLGNPAEFHDSSDHHTFKKMLPRDERRFKAADLNGDLTATREEFTAFLHPEEFEHMKEIVVLETLEDIDKNGDGFVDQDEYIADMFSHEENGPEPDWVLSEREQFNEFRDLNKDGKLDKDEIRHWILPQDYDHAQAEARHLVYESDKNKDEKLTKEEILENWNMFVGSQATNYGEDLTKNHDEL"
5,binds,"Isoform 2 of Caseinolytic peptidase B protein homolog (protein, UniProt Q9H078-2 37-677) VTTGSLGEPQWLRVATGGRPGTSPALFSGRGAATGGRQGGRFDTKCLAAATWGRLPGPEETLPGQDSWNGVPSRAGLGMCALAAALVVHCYSKSPSNKDAALLEAARANNMQEVSRLLSEGADVNAKHRLGWTALMVAAINRNNSVVQVLLAAGADPNLGDDFSSVYKTAKEQGIHSLEVLITREDDFNNRLNNRASFKGCTALHYAVLADDYRTVKELLDGGANPLQRNEMGHTPLDYAREGEVMKLLRTSEAKYQEKQRKREAEERRRFPLEQRLKEHIIGQESAIATVGAAIRRKENGWYDEEHPLVFLFLGSSGIGKTELAKQTAKYMHKDAKKGFIRLDMSEFQERHEVAKFIGSPPGYVGHEEGGQLTKKLKQCPNAVVLFDEVDKAHPDVLTIMLQLFDEGRLTDGKGKTIDCKDAIFIMTSNVASDEIAQHALQLRQEALEMSRNRIAENLGDVQISDKITISKNFKENVIRPILKAHFRRDEFLGRINEIVYFLPFCHSELIQLVNKELNFWAKRAKQRHNITLLWDREVADVLVDGYNVHYGARSIKHEVERRVVNQLAAAYEQDLLPGGCTLRITVEDSDKQLLKSPELPSPQAEKRLPKLRLEIIDKDSKTRRLDIRAPLHPEKVCNTI"
6,binds,"Methionyl-tRNA synthetase (protein, UniProt P56192 1-900) MRLFVSDGVPGCLPVLAAAGRARGRAEVLISTVGPEDCVVPFLTRPKVPVLQLDSGNYLFSTSAICRYFFLLSGWEQDDLTNQWLEWEATELQPALSAALYYLVVQGKKGEDVLGSVRRALTHIDHSLSRQNCPFLAGETESLADIVLWGALYPLLQDPAYLPEELSALHSWFQTLSTQEPCQRAAETVLKQQGVLALRPYLQKQPQPSPAEGRAVTNEPEEEELATLSEEEIAMAVTAWEKGLESLPPLRPQQNPVLPVAGERNVLITSALPYVNNVPHLGNIIGCVLSADVFARYSRLRQWNTLYLCGTDEYGTATETKALEEGLTPQEICDKYHIIHADIYRWFNISFDIFGRTTTPQQTKITQDIFQQLLKRGFVLQDTVEQLRCEHCARFLADRFVEGVCPFCGYEEARGDQCDKCGKLINAVELKKPQCKVCRSCPVVQSSQHLFLDLPKLEKRLEEWLGRTLPGSDWTPNAQFITRSWLRDGLKPRCITRDLKWGTPVPLEGFEDKVFYVWFDATIGYLSITANYTDQWERWWKNPEQVDLYQFMAKDNVPFHSLVFPCSALGAEDNYTLVSHLIATEYLNYEDGKFSKSRGVGVFGDMAQDTGIPADIWRFYLLYIRPEGQDSAFSWTDLLLKNNSELLNNLGNFINRAGMFVSKFFGGYVPEMVLTPDDQRLLAHVTLELQHYHQLLEKVRIRDALRSILTISRHGNQYIQVNEPWKRIKGSEADRQRAGTVTGLAVNIAALLSVMLQPYMPTVSATIQAQLQLPPPACSILLTNFLCTLPAGHQIGTVSPLFQKLENDQIESLRQRFGGGQAKTSPKPAVVETVTTAKPQQIQALMDEVTKQGNIVRELKAQKADKNEVAAEVAKLLDLKKQLAVAEGKPPEAPKGKKKK"
7,binds,"Isoform 2 of Cdc42 effector protein 1 (protein, UniProt Q00587-2 1-384) MPGPQGGRGAATMSLGKLSPVGWVSSSQGKRRLTADMISHPLGDFRHTMHVGRGGDVFGDTSFLSNHGGSSGSTHRSPRSFLAKKLQLVRRVGAPPRRMASPPAPSPAPPAISPIIKNAISLPQLNQAAYDSLVVGKLSFDSSPTSSTDGHSSYGLDSGFCTISRLPRSEKPHDRDRDGSFPSEPGLRRSDSLLSFRLDLDLGPSLLSELLGVMSLPEAPAAETPAPAANPPAPTANPTGPAANPPATTANPPAPAATPTGPAANPPAPAASSTPHGHCPNGVTAGLGPVAEVKSSPVGGGPRGPAGPALGRHWGAGWDGGHHYPEMDARQERVEVLPQARASWESLDEEWRAPQAGSRTPVPSTVQANTFEFADAEEDDEVKV"
8,binds,"DnaJ homolog subfamily C member 7 (protein, UniProt Q99615 1-494) MAAAAECDVVMAATEPELLDDQEAKREAETFKEQGNAYYAKKDYNEAYNYYTKAIDMCPKNASYYGNRAATLMMLGRFREALGDAQQSVRLDDSFVRGHLREGKCHLSLGNAMAACRSFQRALELDHKNAQAQQEFKNANAVMEYEKIAETDFEKRDFRKVVFCMDRALEFAPACHRFKILKAECLAMLGRYPEAQSVASDILRMDSTNADALYVRGLCLYYEDCIEKAVQFFVQALRMAPDHEKACIACRNAKALKAKKEDGNKAFKEGNYKLAYELYTEALGIDPNNIKTNAKLYCNRGTVNSKLRKLDDAIEDCTNAVKLDDTYIKAYLRRAQCYMDTEQYEEAVRDYEKVYQTEKTKEHKQLLKNAQLELKKSKRKDYYKILGVDKNASEDEIKKAYRKRALMHHPDRHSGASAEVQKEEEKKFKEVGEAFTILSDPKKKTRYDSGQDLDEEGMNMGDFDPNNIFKAFFGGPGGFSFEASGPGNFFFQFG"
9,binds,"Cysteine and glycine-rich protein 2 (protein, UniProt Q16527 1-193) MPVWGGGNKCGACGRTVYHAEEVQCDGRSFHRCCFLCMVCRKNLDSTTVAIHDEEIYCKSCYGKKYGPKGYGYGQGAGTLNMDRGERLGIKPESVQPHRPTTNPNTSKFAQKYGGAEKCSRCGDSVYAAEKIIGAGKPWHKNCFRCAKCGKSLESTTLTEKEGEIYCKGCYAKNFGPKGFGYGQGAGALVHAQ"
10,binds,"Cancer/testis antigen family 45 member A5 (protein, UniProt P0DMU8 1-189) MTDKTEKVAVDPETVFKRPRECDSPSYQKRQRMALLARKQGAGDSLIAGSAMSKEKKLMTGHAIPPSQLDSQIDDFTGFSKDGMMQKPGSNAPVGGNVTSSFSGDDLECRETASSPKSQREINADIKRKLVKELRCVGQKYEKIFEMLEGVQGPTAVRKRFFESIIKEAARCMRRDFVKHLKKKLKRMI"

# Reference: publication PMC5216374
